According to paper PMC10333326:
Results are given in words; binding and its absence hold for the method and conditions named. Binding seen in cells or lysates may run through a third protein. Some binding calls cover weakened binding; strength is not graded here.

Protein sequences, listed by entry. Tags and fused reporters are not part of them. Lines headed by an entry give the natural chain unless they say otherwise; changes in a name come on top.
UniProt O94916: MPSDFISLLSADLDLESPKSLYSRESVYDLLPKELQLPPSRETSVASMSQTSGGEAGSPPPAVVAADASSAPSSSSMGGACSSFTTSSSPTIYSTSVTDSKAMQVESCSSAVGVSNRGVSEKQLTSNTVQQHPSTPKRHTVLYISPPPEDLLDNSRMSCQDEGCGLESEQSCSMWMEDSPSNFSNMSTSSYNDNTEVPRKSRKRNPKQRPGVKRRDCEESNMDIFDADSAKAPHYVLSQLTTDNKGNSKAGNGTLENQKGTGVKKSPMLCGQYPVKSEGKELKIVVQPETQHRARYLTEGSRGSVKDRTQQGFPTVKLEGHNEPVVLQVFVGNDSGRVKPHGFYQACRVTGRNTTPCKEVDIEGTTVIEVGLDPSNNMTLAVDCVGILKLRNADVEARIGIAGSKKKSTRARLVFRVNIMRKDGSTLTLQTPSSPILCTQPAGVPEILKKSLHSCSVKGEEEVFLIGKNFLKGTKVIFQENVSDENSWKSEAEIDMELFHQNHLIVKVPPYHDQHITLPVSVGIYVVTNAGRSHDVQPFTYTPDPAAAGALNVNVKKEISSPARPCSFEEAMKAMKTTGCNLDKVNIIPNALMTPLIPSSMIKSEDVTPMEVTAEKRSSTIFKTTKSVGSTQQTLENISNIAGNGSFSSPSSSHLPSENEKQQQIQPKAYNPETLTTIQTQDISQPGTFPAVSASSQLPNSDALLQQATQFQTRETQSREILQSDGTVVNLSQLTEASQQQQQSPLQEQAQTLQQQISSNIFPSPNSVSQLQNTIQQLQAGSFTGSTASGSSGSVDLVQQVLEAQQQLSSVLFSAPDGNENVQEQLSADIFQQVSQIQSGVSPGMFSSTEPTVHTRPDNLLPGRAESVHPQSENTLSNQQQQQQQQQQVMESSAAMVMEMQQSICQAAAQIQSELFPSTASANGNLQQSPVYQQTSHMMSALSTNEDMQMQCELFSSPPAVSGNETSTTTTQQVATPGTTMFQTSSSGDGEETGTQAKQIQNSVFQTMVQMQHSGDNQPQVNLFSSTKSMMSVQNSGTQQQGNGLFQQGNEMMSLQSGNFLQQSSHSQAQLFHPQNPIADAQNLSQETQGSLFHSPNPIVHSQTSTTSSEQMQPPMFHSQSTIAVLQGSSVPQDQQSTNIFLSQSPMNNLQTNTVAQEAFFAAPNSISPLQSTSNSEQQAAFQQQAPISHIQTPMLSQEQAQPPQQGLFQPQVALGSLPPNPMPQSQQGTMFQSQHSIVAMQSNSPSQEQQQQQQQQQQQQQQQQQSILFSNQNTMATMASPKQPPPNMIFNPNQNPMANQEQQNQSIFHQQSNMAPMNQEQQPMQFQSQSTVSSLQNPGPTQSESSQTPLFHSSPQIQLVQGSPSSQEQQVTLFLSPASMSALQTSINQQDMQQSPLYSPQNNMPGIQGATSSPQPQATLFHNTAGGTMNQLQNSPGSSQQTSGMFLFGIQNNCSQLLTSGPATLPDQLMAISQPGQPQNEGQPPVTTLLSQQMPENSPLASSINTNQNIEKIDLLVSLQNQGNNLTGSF
UniProt Q92783: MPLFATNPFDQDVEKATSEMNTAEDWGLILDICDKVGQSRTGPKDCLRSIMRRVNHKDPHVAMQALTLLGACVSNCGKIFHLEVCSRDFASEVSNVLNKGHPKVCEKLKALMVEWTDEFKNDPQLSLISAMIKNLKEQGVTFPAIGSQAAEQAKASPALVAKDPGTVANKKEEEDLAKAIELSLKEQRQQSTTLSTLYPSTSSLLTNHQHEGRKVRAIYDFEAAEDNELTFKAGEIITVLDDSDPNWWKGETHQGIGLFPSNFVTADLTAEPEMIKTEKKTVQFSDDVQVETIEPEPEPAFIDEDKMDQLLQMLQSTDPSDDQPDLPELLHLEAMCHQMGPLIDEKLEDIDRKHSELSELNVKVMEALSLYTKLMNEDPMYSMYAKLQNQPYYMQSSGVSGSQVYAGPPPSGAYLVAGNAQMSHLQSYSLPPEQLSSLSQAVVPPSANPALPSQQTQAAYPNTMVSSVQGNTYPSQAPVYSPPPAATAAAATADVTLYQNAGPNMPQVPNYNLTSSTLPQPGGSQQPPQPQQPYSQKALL
UniProt Q14974: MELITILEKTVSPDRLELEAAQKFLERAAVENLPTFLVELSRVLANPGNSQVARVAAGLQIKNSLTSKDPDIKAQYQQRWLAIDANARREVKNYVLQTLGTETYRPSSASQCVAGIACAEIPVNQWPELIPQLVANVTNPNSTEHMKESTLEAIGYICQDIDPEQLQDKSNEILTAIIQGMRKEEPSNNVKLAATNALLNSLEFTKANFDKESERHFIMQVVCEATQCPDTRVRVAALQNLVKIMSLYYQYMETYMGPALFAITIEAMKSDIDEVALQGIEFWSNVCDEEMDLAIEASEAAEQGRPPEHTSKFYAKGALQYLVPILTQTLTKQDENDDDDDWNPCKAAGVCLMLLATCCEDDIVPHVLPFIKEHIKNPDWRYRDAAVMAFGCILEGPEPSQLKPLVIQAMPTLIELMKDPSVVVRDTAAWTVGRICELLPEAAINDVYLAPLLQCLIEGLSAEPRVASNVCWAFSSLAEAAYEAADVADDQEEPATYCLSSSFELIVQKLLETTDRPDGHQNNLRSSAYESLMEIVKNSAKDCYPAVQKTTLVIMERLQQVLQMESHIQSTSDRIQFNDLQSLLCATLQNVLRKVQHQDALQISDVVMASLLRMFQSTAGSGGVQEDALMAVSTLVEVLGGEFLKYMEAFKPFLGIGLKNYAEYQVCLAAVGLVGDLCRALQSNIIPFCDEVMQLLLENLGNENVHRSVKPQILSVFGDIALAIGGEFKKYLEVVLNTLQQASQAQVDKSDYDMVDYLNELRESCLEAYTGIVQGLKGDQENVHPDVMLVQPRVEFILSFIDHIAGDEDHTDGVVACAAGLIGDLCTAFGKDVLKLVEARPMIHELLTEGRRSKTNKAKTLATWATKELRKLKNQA

Key:
[1] = molecular target: Tonicity-responsive enhancer binding protein (NFAT5), endogenous (human (endogenous in U87/EGFR, U251, U87/EGFRvIII)) (UniProt O94916); assay: co-IP; lysates of TRAF6-overexpressing cells (NFAT5 WT or K668R cells), with or without EGF, with or without EZH2 transfection
[2] = molecular target: Flag-tagged NFAT5 wild-type (human) (UniProt O94916); assay: co-IP; lysates of U87/EGFR or U251 cells stably expressing NFAT5 WT, K668R or K616R, with or without EGF (also an EGF time course after serum starvation); primary antibody overnight at 4 °C, Protein A/G Sepharose beads
[3] = molecular target: Flag-tagged NFAT5 K668R mutant (human) (UniProt O94916); assay: as above
[4] = molecular target: Tonicity-responsive enhancer binding protein (NFAT5), endogenous (human (endogenous in U87/EGFR, U251, U87/EGFRvIII)) (UniProt O94916); assay: co-IP; tumours from U87/EGFRvIII orthotopic xenografts of mice treated with TMZ, DZNep, alone or in combination; the method is not named for this panel
[5] = molecular target: Tonicity-responsive enhancer binding protein (NFAT5), endogenous (human (endogenous in U87/EGFR, U251, U87/EGFRvIII)) (UniProt O94916); assay: co-IP; lysates of cells expressing EZH2 WT or S21A, with or without EGF; primary antibody overnight at 4 °C, Protein A/G Sepharose beads
[6] = molecular target: Tonicity-responsive enhancer binding protein (NFAT5), endogenous (human (endogenous in U87/EGFR, U251, U87/EGFRvIII)) (UniProt O94916); assay: co-IP; endogenous proteins in U87/EGFR and U251 cell lysates; primary antibody overnight at 4 °C, Protein A/G Sepharose beads 2 h, immunoblot; also cells with shEZH2 or DZNep
[7] = molecular target: Flag-tagged NFAT5 wild-type (human) (UniProt O94916); assay: co-IP; lysates of TRAF6-overexpressing cells (NFAT5 WT or K668R cells), with or without EGF, with or without EZH2 transfection

Measured: binding

STAM1, endogenous (from UniProt Q92783 1-540)
binds: [1] | [2] | [3]

importin β1 (IMB1), endogenous (from UniProt Q14974 1-876)
not listed: [1] | [3]
binds: all other assays above
